In publication PMC3700849:
No constants are given. Whether binding was seen depends on the method and setting. Binding seen in cells or lysates may run through a third protein. Binding can be weak; no strength is given.

B1: Intercellular adhesion molecule-2 wild type (ICAM-2 WT) (protein, UniProt P13598 25-275)
chain: KVFEVHVRPKKLAVEPKGSLEVNCSTTCNQPEVGGLETSLDKILLDEQAQWKHYLVSNISHDTVLQCHFTCSGKQESMNSNVSVYQPPRQVILTLQPTLVAVGKSFTIECRVPTVEPLDSLTLFLFRGNETLHYETFGKAAPAPQEATATFNSTADREDGHRNFSCLAVLDLMSRGGNIFHKHSAPKMLEIYEPVSDSQMVIIVTVVSVLLSLFVTSVLLCFIFGQHLRQQRMGTYGVRAAWRRLPQAFRP
modifications: N-glycosylated at asparagines 47, 82, 105, 153, 176 and 187
B2: ICAM-2 glycosylation site variant gsv1,4,5 (protein, UniProt P13598 25-275)
chain: KVFEVHVRPKKLAVEPKGSLEVACSTTCNQPEVGGLETSLDKILLDEQAQWKHYLVSNISHDTVLQCHFTCSGKQESMNSNVSVYQPPRQVILTLQPTLVAVGKSFTIECRVPTVEPLDSLTLFLFRGAETLHYETFGKAAPAPQEATATFASTADREDGHRNFSCLAVLDLMSRGGNIFHKHSAPKMLEIYEPVSDSQMVIIVTVVSVLLSLFVTSVLLCFIFGQHLRQQRMGTYGVRAAWRRLPQAFRP
modifications: not able to be glycosylated at 47, 153 and 176
B3: ICAM-2 glycosylation site variant gsv4,5 (protein, UniProt P13598 25-275)
chain: KVFEVHVRPKKLAVEPKGSLEVNCSTTCNQPEVGGLETSLDKILLDEQAQWKHYLVSNISHDTVLQCHFTCSGKQESMNSNVSVYQPPRQVILTLQPTLVAVGKSFTIECRVPTVEPLDSLTLFLFRGAETLHYETFGKAAPAPQEATATFASTADREDGHRNFSCLAVLDLMSRGGNIFHKHSAPKMLEIYEPVSDSQMVIIVTVVSVLLSLFVTSVLLCFIFGQHLRQQRMGTYGVRAAWRRLPQAFRP
B4: ICAM-2 glycosylation site variant gsv1-6 (protein, UniProt P13598 25-275)
chain: KVFEVHVRPKKLAVEPKGSLEVACSTTCNQPEVGGLETSLDKILLDEQAQWKHYLVSAISHDTVLQCHFTCSGKQESMNSAVSVYQPPRQVILTLQPTLVAVGKSFTIECRVPTVEPLDSLTLFLFRGAETLHYETFGKAAPAPQEATATFASTADREDGHRAFSCLAVLDLMSRGGNIFHKHSAPKMLEIYEPVSDSQMVIIVTVVSVLLSLFVTSVLLCFIFGQHLRQQRMGTYGVRAAWRRLPQAFRP
B5: ICAM-2 glycosylation site variant gsv1,2,5 (protein, UniProt P13598 25-275)
chain: KVFEVHVRPKKLAVEPKGSLEVACSTTCNQPEVGGLETSLDKILLDEQAQWKHYLVSAISHDTVLQCHFTCSGKQESMNSNVSVYQPPRQVILTLQPTLVAVGKSFTIECRVPTVEPLDSLTLFLFRGNETLHYETFGKAAPAPQEATATFASTADREDGHRNFSCLAVLDLMSRGGNIFHKHSAPKMLEIYEPVSDSQMVIIVTVVSVLLSLFVTSVLLCFIFGQHLRQQRMGTYGVRAAWRRLPQAFRP

The binders below were run against α-actinin (human (endogenous in SK-N-AS)) (assay: co-IP; IP of α-actinin with mouse monoclonal MAB1682 from whole cell lysates of SK-N-AS transfectants expressing ICAM-2 WT or a gsv variant; immunoblots for α-actinin, ICAM-2 (AF244) and actin; qualitative).

binding, binds:
B1
B2
B3
B4
B5
